# For at least one compound, name, drawing or mass did not settle the structure.
# Tested on: hair cells of adult utricle explants
# Test: scRNAseq of adult utricle explants cultured with retinoic acid after AAV8 Rarb/Rxra or GFP transduction
# Type: cell-based, mouse
# Conditions: 1 μM, AAV8.CMV.Rarb + AAV8.CMV.Rxra vs AAV8.CMV.GFP, 9 days culture
smiles,measurement,value
CC1=C(/C=C/C(C)=C/C=C/C(C)=C/C(=O)O)C(C)(C)CCC1 [retinoic acid],generation of hair cells with decreased expression of transcripts typically associated with type II hair cells,did not result
same,generation of hair cells with increased expression of transcripts typically associated with type I hair cells,did not result
